PubChem BioAssay AID1259405 | NCATS – 2018
In all, the deposit lists about 50,000 reagents; this is an unselected part. About 4,000 of them (8%) count as active. 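Mouse siRNA library applied to hamster cells; one well for each siRNA.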 Entries without a mark were called inactive. No sequences are given here.

Aim: 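Silenced genes that increase secreted GFP made by CHO cells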 (primary screen)
Cell system: Chinese hamster CHO-K1 ovary cells with stable secreted eGFP expression
Reagent: single siRNA against mouse genes, 0.8 pmol siRNA per well (2 µl of 400 nM stock)
Duration: 3 days
Measured: 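Per-well intracellular GFP measured by laser scanning cytometry, plus viability from ATP luminescence, each relative to plate median of non-targeting control wells, in %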
Reading the numbers: GFP, % of control: higher = more GFP per well, higher productivity; viability (ATP), % of control: higher = more viable cells (more ATP)
Rule for the call: 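Called active when intracellular GFP, relative to negative control, is at or above 120%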

Target gene | PubChem SID | GFP, % of control | viability (ATP), % of control
Slc22a5 | SID363574767 | 48.9 | 50.8
Slc22a5 | SID363575823 | 25.6 | 27.2
Slc22a5 | SID363580399 | 85.7 | 64.6
Phb2 | SID363547160 | 32.3 | 26.9
Phb2 | SID363549972 | 60.4 | 60
Phb2 | SID363588026 | 80.6 | 71.6
Dpm1 | SID363584520 | 92.7 | 85.5
Dpm1 | SID363589550 | 94.9 | 51.5
Tmprss2 | SID363574536 | 111 | 112
Tmprss2 | SID363575592 | 77 | 101
Tmprss2 | SID363580168 | 71.9 | 78.3
Kcna2 | SID363574597 | 132 (active) | 78.6
Kcna2 | SID363575653 | 108 | 54.9
Kcna2 | SID363580229 | 44 | 80.3
Sik1 | SID363570840 | 79.8 | 61
Hoxb3 | SID363540415 | 56.3 | 77.2
Hoxb3 | SID363542167 | 30.4 | 34.6
Hoxb3 | SID363567083 | 70.8 | 92.9
Wfdc15b | SID363556705 | 70 | 55.7
Wfdc15b | SID363563609 | 67.4 | 55.8
Wfdc15b | SID363587155 | 65.2 | 94.3
Enah | SID363541172 | 46.3 | 41.1
Enah | SID363555799 | 58.5 | 70.2
Enah | SID363566088 | 85.3 | 57.2
Cmtm8 | SID363550140 | 105 | 85.2
Cmtm8 | SID363564649 | 110 | 83.4
Cmtm8 | SID363588194 | 59.4 | 97.1
Cd209d | SID363544372 | 85.3 | 82
Cd209d | SID363550700 | 75.6 | 68.9
Cd209d | SID363557249 | 65.3 | 99.2
Actr1b | SID363572166 | 108 | 83.6
Actr1b | SID363573926 | 71.6 | 87.3
Kcnj5 | SID363574887 | 94.2 | 58.1
Kcnj5 | SID363575943 | 103 | 88.2
Kcnj5 | SID363580519 | 76.1 | 93.3
